Results are given in words; binding and its absence hold for the method and conditions named. Binding calls can cover weak binding; strength is not graded here. One block for each binder: values may come before it.
Tests used:
Assay in all cases: FACS, HEK293T cells expressing human/rat KLB chimeric proteins; summary table of + and - by epitope bin
[1] = target: human/rat KLB chimera, fifth bar of FIG. 11B
[2] = target: human/rat KLB chimera, third bar of FIG. 11B
[3] = target: human/rat KLB chimera, sixth bar of FIG. 11B
[4] = target: human/rat KLB chimera, fourth bar of FIG. 11B

binding [1]: no binding (tested: not given)
binding [2]: binds
binding [3]: no binding (tested: not given)
binding [4]: binds
B1: anti-KLB monoclonal antibody 23B3 (antibody, V domains shown)
VH: EVQLQESGPGLVKPSQSLSLTCSVTGYSITSGYYWNWIRQFPGNKLEWMGYIRYDGNSNYNPFLKNRVSITRDTSKNQFFLKLNSVTTEDTATYYCTRKGAYYSSFDALDYWGQGTSVTVSS
VL: DIVMTQSPSSMYASLGERVTISCKASQDIRSYLSWFQQKPGKSPKTLIYRANRLVDGVPSRFSGSGSGQDYSLTITSLEFGDVGLYYCLQYDEFPLTFGAGTKLKIE

binding [1]: no binding (tested: not given)
binding [2]: no binding (tested: not given)
binding [3]: binds
binding [4]: no binding (tested: not given)
B2: anti-KLB monoclonal antibody 28B7 (antibody, IgG1, V domains shown)
VH: EVQLQQSGPELVQPGTSVKISCEASGYTFTDYYINWVKQSRGKSLEWIGDINPNNGDTTYNQKFKAKATLTVDRSSNTAYMELRSLTSEDSVVYYCARRFYSSPFDSWGQGTTLTVSS
VL: DIVMTQSPSSLAVSVGEKVTLSCKSGQSLLYSRNQKNYLAWYQQKPGQSPKLLISWASTRESGVPDRFTGSGSGTDFTLTISSVKTEDLAVYHCQQYYSYPYTFGGGTRLEIK

binding [1]: no binding (tested: not given)
binding [2]: binds
binding [3]: no binding (tested: not given)
binding [4]: binds
B3: anti-KLB monoclonal antibody 2C12 (antibody, human IgG1, V domains shown)
VH: EVQLQQSGPGLVKPSQSLSLTCSVTGYSITSGYYWTWIRQFPGNKLEWMGYIKYDGGNYYNPSLRNRISITRDTSKNHFFLKFYSVTAEDTATYFCARGDYYASPYGAMDSWGQGTSVTVSS
VL: DIVMTQSPSSLSASLGDTITITCHASQDIDVWLSWYQQKPGNVPQLLISKSSILHTGVPSRFSGGGSGTGFTLTISSLQPEDIATYYCQQGLSYPFTFGSGTKLKIK

binding [1]: binds
binding [2]: binds
binding [3]: no binding (tested: not given)
binding [4]: no binding (tested: not given)
B4: anti-KLB monoclonal antibody 12B8 (antibody, V domains shown)
VH: QIQLVQSGPELKKPGETAKISCKASGYAFSNYGMNWVKQAPGKDLKWMGWIDTDTGEATYTDDFKGRFVFSLETSASTAYLQINNLKNEDMATYFCAREEYGLFGFPYWGHGTLVTVSA
VL: DIQMTQSSSSFSVSLGDRVTITCKASEDIYNRLAWYQQKPGSAPRLLISAATSLETGVPSRFSGSGSGKDYTLSITSLQTEDVATYYCQQYWSNPLTFGAGTKLELK
